{"source": "patent US12202805B2", "about": "“Process for preparing (5S)-{[2-(4-carboxyphenyl)ethyl] |2-(2-{|3-chloro-4'-(trifluoromethyl)biphenyl-4-yl]methoxy}phenyl)ethyl]aminol-5,6,7,8-tetrahydroquinoline-2-carboxylic acid and its crystalline forms for use as pharmaceutically active compound” (Bayer Aktiengesellschaft, priority 2021, dated 2025)", "test": "Filter experiments for deposited lung dose in the PAH minipig model and prediction of human dose", "assay_type": "in vivo", "procedure": "The anesthetized thromboxane A2 challenged PAH-minipig model (see experimental part E-1) is considered to be the most relevant and sensitive model for the prediction of the human minimal effective and effective doses (MED, ED). To determine effective LDs, experiments were repeated with the difference that absorbing filters were attached at the end of the tubes to determine the deposited lung dose. […] Assuming a minimal effective ND of 3 μg/kg (5% reduction in PAP) the minimal effective deposited LD is considered as 0.15 μg/kg.\nThe nominal doses of 3, 10, 30 and 100 μg/kg of the minipig model were multiplied by the filter deposition factor of 5% resulting in 0.15, 0.5, 1.5 and 5 μg/kg lung deposited doses in the minipig. These values were multiplied by 60 kg to achieve the lung dose in humans. Thus, the FPD reflecting the PAP reduction for a 60 kg human are calculated to be 9, 30, 90 and 300 μg.\nThus, via a direct up-scaling from minipig, the predictive MED (5% PAP reduction) for a human based on a 60 kg body weight is calculated to be 9 μg LDD, not considering protein binding within the respiratory tract. As a surrogate for unbound concentrations, which are the likely active concentrations in the lung, we considered respective differences in fractions unbound in plasma of minipig and human. This consideration results in a minimum effective lung dose (LD) for a 60 kg participant of 41 μg LDD for the assumed 5% reduction on PAP. Consequently, the predictive minimal human effective dose is in the range from 9 μg LDD to 41 μg LDD based on a 60 kg body weight (see FIG. 3).\nIn order to generate a human dose estimate, experiments in the PAH minipig model for comparative example 11 were repeated with the difference that absorbing filters were attached at the end of the tubes to determine the deposited lung dose. […] The arithmetic mean of the aerosol fraction deposited on the filters is 5% based on all results of the filter experiments, resulting in relative lung deposited doses of about 0.15 μg/kg (3 μg/kg nominal dose), 0.5 μg/kg (10 μg/kg nominal dose), 1.5 μg/kg (30 μg/kg nominal dose) and 5 μg/kg (100 μg/kg nominal dose). Assuming a minimal effective nominal dose of 3 μg/kg for a 5% reduction in PAP and a mean nebulization efficiency of 5%, the minimal effective deposited lung dose is considered as 0.15 μg/kg based on the PAH minipig model. Therefore, for a human patient of 60 kg body weight a minimal effective lung deposited dose of 9-41p g, depending on whether or not an effect of different protein binding (see table 28) is postulated. Considering 100 μg/kg as effective dose in the minipig model, 300-1370 μg lung deposited dose is postulated as effective dose, again depending on the consideration of different interspecies protein binding."}
{"smiles": "O=C(O)c1ccc(CCN(CCc2ccccc2OCc2ccc(-c3ccc(C(F)(F)F)cc3)cc2Cl)[C@H]2CCCc3nc(C(=O)O)ccc32)cc1", "note": "[example 2, (5S)—{[2-(4-Carboxyphenyl)ethyl][2-(2-{[3-chloro-4′-(trifluoromethyl)biphenyl-4-yl]methoxy}phenyl)-ethyl]amino}-5,6,7,8-tetrahydroquinoline-2-carboxylic acid as Monohydrate II]", "values": [{"measurement": "relative lung deposited dose", "setting": "3 μg/kg nominal dose", "result": "about 0.15 μg/kg"}, {"measurement": "relative lung deposited dose", "setting": "10 μg/kg nominal dose", "result": "~0.5", "unit": "µg/kg"}, {"measurement": "relative lung deposited dose", "setting": "30 μg/kg nominal dose", "result": "~1.5", "unit": "µg/kg"}, {"measurement": "relative lung deposited dose", "setting": "100 μg/kg nominal dose", "result": "~5", "unit": "µg/kg"}]}
